Experiment [1] concerns the target GFP-TEV-FLAG-3C-USP7 fusion (UniProt Q93009). The experiment can be described thus: affinity purification with mass spectrometry; GFP-Trap magnetic agarose pull outs on nuclear extracts of K562 cells stably expressing the GFP fusion, 1 h at 4°C, six washes in TBS with 0.3% IGEPAL CA-630; bound fraction analysed by LC-MS/MS; for GFP-RING1B and PCGF1-GFP also from cells treated with DMSO or P22077.

Chains of the proteins cited; added tags and fusions are not shown.
UniProt Q93009: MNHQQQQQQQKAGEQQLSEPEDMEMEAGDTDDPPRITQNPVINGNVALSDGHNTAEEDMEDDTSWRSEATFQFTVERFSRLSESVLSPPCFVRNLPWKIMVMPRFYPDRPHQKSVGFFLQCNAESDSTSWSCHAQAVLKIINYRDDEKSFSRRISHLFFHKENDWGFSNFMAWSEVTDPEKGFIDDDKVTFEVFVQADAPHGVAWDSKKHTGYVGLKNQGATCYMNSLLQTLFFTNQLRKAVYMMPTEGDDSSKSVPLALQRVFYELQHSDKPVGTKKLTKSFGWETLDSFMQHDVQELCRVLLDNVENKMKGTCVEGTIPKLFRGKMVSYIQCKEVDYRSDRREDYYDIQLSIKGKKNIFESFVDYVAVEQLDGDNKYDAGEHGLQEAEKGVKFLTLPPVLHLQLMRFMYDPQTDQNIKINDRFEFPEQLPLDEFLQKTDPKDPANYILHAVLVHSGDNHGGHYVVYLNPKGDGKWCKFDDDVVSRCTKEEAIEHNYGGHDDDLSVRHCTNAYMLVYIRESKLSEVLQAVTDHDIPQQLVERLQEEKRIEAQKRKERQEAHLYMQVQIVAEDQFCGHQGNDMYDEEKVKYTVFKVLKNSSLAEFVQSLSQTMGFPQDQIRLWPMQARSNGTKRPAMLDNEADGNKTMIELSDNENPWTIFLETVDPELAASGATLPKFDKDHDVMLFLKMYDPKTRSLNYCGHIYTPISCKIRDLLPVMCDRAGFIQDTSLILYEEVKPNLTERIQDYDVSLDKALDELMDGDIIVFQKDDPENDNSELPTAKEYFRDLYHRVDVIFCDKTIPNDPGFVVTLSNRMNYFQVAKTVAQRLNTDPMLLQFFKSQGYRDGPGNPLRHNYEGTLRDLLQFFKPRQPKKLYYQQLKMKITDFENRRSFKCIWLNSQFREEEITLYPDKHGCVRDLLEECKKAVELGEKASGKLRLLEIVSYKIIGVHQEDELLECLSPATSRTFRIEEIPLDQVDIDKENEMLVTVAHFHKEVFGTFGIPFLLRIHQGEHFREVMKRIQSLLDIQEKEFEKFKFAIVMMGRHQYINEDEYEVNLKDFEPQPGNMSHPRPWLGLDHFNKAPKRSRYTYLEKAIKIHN
UniProt Q9BSM1: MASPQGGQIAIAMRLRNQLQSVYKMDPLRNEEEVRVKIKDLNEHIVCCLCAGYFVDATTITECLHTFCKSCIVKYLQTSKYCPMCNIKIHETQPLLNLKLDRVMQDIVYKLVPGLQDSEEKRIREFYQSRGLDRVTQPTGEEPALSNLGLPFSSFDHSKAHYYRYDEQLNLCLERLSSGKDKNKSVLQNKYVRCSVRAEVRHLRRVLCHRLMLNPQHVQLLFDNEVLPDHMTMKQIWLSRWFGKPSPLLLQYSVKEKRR
UniProt Q99496: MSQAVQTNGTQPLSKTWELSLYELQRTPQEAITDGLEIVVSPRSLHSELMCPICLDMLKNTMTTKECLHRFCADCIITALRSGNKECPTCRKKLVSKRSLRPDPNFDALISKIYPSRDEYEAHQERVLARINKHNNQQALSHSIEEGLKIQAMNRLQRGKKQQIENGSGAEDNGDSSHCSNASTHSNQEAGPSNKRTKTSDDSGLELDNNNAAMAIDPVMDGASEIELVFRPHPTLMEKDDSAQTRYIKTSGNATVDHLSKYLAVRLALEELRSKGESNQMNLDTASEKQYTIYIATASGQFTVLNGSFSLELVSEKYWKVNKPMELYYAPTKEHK
UniProt Q06587: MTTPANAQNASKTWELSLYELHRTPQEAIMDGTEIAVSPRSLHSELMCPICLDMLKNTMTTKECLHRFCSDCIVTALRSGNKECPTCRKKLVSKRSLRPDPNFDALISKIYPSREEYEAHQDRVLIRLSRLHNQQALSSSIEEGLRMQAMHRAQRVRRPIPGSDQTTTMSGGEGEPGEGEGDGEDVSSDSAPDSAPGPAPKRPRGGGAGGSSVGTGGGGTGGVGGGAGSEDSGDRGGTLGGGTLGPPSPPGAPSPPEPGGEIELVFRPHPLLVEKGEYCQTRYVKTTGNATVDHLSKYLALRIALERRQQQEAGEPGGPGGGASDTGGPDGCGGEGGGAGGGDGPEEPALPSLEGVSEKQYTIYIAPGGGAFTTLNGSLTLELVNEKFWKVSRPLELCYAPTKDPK
UniProt Q6W2J9: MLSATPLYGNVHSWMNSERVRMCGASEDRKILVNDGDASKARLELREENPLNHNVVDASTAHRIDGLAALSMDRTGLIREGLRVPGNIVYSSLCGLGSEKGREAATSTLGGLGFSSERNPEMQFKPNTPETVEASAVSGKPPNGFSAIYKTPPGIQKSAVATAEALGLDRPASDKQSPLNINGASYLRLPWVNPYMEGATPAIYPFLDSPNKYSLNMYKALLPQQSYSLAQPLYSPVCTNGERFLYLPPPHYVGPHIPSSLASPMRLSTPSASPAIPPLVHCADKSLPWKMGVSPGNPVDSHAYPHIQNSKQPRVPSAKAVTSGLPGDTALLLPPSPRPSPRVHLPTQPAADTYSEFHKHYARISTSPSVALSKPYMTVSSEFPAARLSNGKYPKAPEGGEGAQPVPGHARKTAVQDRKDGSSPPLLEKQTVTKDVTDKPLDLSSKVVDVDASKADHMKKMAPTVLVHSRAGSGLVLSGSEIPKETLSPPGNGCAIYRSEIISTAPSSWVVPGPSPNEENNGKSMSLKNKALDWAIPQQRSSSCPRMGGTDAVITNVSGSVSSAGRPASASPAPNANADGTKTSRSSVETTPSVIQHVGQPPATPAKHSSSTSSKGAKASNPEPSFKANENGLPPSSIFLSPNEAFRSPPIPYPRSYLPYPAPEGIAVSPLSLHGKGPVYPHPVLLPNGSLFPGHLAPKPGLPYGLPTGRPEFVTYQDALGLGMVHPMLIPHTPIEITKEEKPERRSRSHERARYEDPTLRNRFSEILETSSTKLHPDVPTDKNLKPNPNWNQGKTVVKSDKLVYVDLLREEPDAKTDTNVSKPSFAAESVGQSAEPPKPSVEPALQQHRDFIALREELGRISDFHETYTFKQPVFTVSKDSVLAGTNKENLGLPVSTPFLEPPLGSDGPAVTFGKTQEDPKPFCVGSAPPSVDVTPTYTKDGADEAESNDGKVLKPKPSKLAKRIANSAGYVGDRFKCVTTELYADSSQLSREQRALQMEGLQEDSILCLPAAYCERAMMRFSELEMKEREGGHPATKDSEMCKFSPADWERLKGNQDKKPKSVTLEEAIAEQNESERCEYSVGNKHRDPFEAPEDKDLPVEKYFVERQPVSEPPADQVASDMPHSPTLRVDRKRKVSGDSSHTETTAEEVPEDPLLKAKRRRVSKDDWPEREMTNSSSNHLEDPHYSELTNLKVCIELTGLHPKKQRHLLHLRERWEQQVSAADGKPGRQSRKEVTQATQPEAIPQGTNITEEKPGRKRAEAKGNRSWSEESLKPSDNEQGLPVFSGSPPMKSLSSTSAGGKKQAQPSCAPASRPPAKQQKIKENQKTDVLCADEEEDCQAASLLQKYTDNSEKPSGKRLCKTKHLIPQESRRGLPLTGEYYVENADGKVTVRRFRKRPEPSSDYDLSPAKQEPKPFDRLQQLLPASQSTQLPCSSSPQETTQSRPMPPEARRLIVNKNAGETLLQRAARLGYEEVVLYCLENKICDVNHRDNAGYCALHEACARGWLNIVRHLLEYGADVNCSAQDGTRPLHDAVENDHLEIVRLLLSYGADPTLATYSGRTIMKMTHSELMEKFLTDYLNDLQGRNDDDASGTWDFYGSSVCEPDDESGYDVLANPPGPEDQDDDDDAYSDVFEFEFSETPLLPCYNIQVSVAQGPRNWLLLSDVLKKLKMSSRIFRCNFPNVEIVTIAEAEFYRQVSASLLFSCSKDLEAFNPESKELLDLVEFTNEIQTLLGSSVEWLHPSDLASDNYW
UniProt Q5H9F3: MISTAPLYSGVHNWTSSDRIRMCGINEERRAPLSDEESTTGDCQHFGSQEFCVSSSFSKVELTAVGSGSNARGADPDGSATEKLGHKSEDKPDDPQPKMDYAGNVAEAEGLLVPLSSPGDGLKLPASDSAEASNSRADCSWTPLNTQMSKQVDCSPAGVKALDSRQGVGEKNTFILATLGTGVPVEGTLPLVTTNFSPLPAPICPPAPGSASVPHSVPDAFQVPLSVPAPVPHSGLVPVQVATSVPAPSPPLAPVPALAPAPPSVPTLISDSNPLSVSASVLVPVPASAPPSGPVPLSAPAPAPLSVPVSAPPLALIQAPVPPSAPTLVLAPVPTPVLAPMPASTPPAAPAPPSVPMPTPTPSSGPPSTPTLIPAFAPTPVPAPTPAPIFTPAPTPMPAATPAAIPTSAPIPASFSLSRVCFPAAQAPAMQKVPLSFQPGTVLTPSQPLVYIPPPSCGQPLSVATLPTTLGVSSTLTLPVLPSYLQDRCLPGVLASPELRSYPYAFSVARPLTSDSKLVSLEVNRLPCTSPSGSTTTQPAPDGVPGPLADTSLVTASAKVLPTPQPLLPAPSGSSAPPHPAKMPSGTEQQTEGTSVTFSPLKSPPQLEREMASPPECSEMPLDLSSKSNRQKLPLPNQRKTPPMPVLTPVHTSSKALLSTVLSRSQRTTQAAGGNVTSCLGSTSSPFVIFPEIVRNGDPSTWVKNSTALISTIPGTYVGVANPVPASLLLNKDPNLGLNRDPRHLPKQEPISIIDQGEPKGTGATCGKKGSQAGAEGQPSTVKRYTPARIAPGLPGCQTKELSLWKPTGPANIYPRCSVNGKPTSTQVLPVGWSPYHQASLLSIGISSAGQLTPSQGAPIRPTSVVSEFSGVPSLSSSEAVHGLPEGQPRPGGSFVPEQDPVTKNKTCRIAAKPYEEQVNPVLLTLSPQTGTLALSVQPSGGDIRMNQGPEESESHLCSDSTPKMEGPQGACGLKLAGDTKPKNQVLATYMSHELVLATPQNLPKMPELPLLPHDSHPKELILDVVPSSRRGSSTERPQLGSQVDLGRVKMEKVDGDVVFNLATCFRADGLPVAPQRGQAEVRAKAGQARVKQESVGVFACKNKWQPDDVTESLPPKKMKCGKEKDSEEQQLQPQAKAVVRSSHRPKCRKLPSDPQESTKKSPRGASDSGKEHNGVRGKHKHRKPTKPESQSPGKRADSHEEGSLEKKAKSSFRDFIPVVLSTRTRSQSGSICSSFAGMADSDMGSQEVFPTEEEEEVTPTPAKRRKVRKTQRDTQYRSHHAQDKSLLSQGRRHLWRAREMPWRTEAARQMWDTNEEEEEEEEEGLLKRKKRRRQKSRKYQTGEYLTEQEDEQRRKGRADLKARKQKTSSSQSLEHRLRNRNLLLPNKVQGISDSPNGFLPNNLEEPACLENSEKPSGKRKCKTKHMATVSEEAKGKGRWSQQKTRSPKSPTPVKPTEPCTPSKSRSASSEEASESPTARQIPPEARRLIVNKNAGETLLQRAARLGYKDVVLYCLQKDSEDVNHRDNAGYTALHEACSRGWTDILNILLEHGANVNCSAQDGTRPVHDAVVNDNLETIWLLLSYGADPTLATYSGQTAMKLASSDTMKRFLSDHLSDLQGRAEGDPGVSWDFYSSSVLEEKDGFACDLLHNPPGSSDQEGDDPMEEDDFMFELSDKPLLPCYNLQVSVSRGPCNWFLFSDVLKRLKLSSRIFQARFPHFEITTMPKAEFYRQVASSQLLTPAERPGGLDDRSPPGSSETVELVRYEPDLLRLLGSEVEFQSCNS
UniProt P63208: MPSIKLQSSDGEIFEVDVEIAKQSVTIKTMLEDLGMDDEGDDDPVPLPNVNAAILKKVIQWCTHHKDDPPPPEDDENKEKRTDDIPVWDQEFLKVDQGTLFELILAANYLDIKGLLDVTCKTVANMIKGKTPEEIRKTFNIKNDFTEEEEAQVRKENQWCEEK
UniProt Q9UQR0: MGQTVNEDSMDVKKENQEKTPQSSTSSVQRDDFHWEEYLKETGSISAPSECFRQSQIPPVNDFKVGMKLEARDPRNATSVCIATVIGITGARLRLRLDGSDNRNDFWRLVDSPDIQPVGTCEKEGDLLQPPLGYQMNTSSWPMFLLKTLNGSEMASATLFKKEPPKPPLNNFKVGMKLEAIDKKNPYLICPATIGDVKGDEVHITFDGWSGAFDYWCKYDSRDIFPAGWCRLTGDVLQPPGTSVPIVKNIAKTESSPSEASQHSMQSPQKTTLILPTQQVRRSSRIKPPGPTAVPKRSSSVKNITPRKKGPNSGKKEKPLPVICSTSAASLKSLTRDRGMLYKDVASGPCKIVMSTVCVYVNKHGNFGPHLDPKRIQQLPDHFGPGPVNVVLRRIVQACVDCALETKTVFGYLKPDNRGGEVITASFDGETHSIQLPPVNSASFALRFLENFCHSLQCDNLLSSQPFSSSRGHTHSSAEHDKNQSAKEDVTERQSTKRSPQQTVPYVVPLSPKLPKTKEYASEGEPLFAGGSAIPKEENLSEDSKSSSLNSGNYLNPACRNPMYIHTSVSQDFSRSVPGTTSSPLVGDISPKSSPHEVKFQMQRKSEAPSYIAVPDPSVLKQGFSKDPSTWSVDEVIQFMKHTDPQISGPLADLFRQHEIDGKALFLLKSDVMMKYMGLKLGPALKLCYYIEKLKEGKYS

In another experiment the target is PCGF1-GFP (UniProt Q9BSM1). The description is as above.
The target in experiment [2] is GFP-RING1B (UniProt Q99496). Described as above.
Experiment [3] concerns the target T1, KDM2B-GFP (wild-type KDM2B, long form) (UniProt Q8NHM5).
T1 sequence: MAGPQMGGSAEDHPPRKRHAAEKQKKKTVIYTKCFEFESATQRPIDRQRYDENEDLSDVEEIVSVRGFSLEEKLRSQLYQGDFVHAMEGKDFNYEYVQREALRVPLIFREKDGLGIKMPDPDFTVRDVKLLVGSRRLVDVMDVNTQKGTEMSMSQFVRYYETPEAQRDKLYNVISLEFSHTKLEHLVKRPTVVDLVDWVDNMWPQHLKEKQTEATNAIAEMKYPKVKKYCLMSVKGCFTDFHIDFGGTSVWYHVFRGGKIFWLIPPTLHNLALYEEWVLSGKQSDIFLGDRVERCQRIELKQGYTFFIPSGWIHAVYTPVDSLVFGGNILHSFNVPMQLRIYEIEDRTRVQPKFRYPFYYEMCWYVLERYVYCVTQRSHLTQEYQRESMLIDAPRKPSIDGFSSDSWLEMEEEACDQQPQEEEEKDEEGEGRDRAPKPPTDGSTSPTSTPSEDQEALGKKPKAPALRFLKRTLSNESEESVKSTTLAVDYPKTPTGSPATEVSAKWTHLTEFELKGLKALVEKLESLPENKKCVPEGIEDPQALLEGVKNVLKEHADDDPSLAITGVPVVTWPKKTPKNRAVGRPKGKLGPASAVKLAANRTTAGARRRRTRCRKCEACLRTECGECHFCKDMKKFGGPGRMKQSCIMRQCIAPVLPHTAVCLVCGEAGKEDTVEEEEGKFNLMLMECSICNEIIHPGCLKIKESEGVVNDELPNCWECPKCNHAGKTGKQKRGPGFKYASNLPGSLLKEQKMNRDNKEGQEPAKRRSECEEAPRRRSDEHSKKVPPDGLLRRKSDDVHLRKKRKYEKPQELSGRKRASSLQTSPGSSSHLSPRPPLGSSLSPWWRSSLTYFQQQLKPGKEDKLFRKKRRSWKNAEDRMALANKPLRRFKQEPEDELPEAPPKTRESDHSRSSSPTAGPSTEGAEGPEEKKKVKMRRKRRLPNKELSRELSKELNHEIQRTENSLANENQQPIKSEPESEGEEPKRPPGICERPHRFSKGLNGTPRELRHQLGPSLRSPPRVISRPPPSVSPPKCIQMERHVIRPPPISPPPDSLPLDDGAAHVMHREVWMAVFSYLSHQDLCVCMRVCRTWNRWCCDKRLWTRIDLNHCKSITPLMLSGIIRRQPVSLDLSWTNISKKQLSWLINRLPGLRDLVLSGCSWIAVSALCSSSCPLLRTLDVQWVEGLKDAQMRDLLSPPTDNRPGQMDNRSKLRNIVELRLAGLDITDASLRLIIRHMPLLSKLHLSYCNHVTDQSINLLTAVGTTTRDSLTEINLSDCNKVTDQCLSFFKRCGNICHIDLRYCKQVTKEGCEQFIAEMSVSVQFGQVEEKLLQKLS
Described as above.

Another experiment concerns the target KDM2BΔ(CxxC)-GFP (UniProt Q8NHM5). Described as above.
The next experiment concerns the target KDM2BΔ(PHD)-GFP (UniProt Q8NHM5). Described as above.
The next experiment deals with KDM2BΔ(LRR)-GFP (UniProt Q8NHM5). The description is as above.
Experiment [4] has as its target GFP-RING1B (UniProt Q99496). The experiment can be described thus: condition: only cells treated with the USP7 inhibitor P22077; affinity purification with mass spectrometry; GFP pull outs on nuclear extracts of K562 GFP-RING1B cells treated with the USP7 inhibitor P22077, LC-MS/MS, label-free quantification.
In experiment [5] the target is GFP-TEV-FLAG-3C-USP7 fusion (UniProt Q93009). Kind of experiment: affinity purification with mass spectrometry; GFP-Trap magnetic agarose pull outs on nuclear extracts of K562 cells stably expressing the GFP fusion, 1 h at 4°C, six washes in TBS with 0.3% IGEPAL CA-630; bound fraction analysed by LC-MS/MS; for GFP-RING1B and PCGF1-GFP also from cells treated with DMSO or P22077. The source holds these as a separate data set.

Like-named read-outs stand apart in the source and are kept apart here. No constants are given. Whether binding was seen depends on the method and setting. Binding seen in cells or lysates may run through a third protein. Here binding means that the protein was enriched with, or labelled near, the bait; the list need not be complete. For some assays here: A no says only that the protein was not detected with the bait. For some assays here: Sequences can lack the tags named with a protein.

For “PCGF1, endogenous (from UniProt Q9BSM1 1-259)”, the binding entry in experiment [1] is recorded as “binds”.
Turning to “RING1A, endogenous (from UniProt Q06587 1-406)”, the binding entry in experiment [1] was “binds”; with PCGF1-GFP, “binds”; with GFP-RING1B [2], “no binding”; in [3], “binds”.
As to “RING1B, endogenous (from UniProt Q99496 1-336)”, the binding result in experiment [1] is recorded as “binds”.
“BCOR, endogenous (from UniProt Q6W2J9 1-1755)”: the binding entry in experiment [1] is given as “binds”.
Same read-out and setting: as for “CBX8, endogenous (from UniProt Q9HC52 1-389)”, the entry is “binds”; as for “BCORL1, endogenous (from UniProt Q5H9F3 1-1785)”, “binds”.
Consider “USP7 (ubiquitin-specific peptidase 7), endogenous (from UniProt Q93009 1-1102) (enzyme)”, for which the binding entry with PCGF1-GFP and with GFP-RING1B [2] was “binds” throughout.
On to “GMPS, endogenous (from UniProt P49915 1-693) (enzyme)”, for which the binding result in experiment [1] was “binds”.
“SKP1, endogenous (from UniProt P63208 1-163)”: the binding entry (in [1]; with KDM2BΔ(CxxC)-GFP; with KDM2BΔ(PHD)-GFP; with KDM2BΔ(LRR)-GFP; in [3]) was “binds” throughout.
Turning to “SCML2, endogenous (from UniProt Q9UQR0 1-700)”, the binding result with GFP-RING1B [4] is recorded as “no binding”; in experiment [1], “binds”; in the experiment with GFP-RING1B [2], “binds”.

B1: RYBP, endogenous (protein, UniProt Q8N488 1-228)
chain: MTMGDKKSPTRPKRQAKPAADEGFWDCSVCTFRNSAEAFKCSICDVRKGTSTRKPRINSQLVAQQVAQQYATPPPPKKEKKEKVEKQDKEKPEKDKEISPSVTKKNTNKKTKPKSDILKDPPSEANSIQSANATTKTSETNHTSRPRLKNVDRSTAQQLAVTVGNVTVIITDFKEKTRSSSTSSSTVTSSAGSEQQNQSSSGSESTDKGSSRSSTPKGDMSAVNDESF
As for B1, the binding entry in [5] is “binds”.

B2: FBXO38, endogenous (protein, UniProt Q6PIJ6 1-1188)
chain: MGPRKKSVKTCIMNNEIPEEMTADETKDYMNQLSHEVLCHIFRYLPLQDIMCMECLSRKLKEAVTLYLRVVRVVDLCAGRWWEYMPSGFTDASFLTLLKKMPDVEQLYGLHPRYLERRRVRGHEAFSIPGVLEALQACPNLVGVETSHLELVESIWTYMPHVHILGKFRNRNGAFPIPPENKLKIPIGAKIQTLHLVGVNVPEIPCIPMLRHLYMKWVRLTKPQPFKDFLCISLRTFVMRNCAGPTNSLKYVPLVTGLASARNLEHLEMVRVPFLGGLIQHVVEDSWRSGGFRNLHTIVLGACKNALEVDLGYLIITAARRLHEVRIQPSLTKDGVFSALKMAELEFPQFETLHLGYVDEFLLQSRMANADLVKYGLADVVENPGIITDIGMKAVNEVFSCIKYLAIYNCPHLHNPYNWISDHSRWTRLVDINLVRCHALKLDSFGQFIELLPSLEFISLDQMFREPPKGCARVGLSAGTGIGVSSALVSNQNSNNDDNNAQNNNANIHDNNHHHPDDSDEENDFRQDLQPGEQQFAADALNEMEDIVQEDGEVVAESGNNTPAHSQAIIPVDVDEEQAGPSGLQRVVKPTSITVHDSESDDEEDSLELQEVWIPKNGTRRYSEREEKTGESVQSRELSVSGKGKTPLRKRYNSHQMGQSKQFPLEESSCEKGCQVTSEQIKADMKAARDIPEKKKNKDVYPSCSSTTASTVGNSSSHNTASQSPDFVRTVNSGGSSEPSPTEVDVSRQCACSPGGSEDSEAMEEGDAESSVCPRCCCHRPQESQRRTSRCSDEERPSTSRACVVNGPDGTRSAFSFRTLPQGGSSGPAHDERTNGSGSGATGEDRRGSSQPESCDVQSNEDYPRRPLTRARSRLSHVLLVSESEVAKTKPRHAMKRKRTADKSTSTSDPVIEDDHVQVLVLKSKNLVGVTMTNCGITDLVLKDCPKMMFIHATRCRVLKHLKVENAPIVNRFDYAQCKKLNMDQVLDQILRMPPERNRIIYLRPMQQVDTLTLEQKLFSGPYPYHICIIHEFSNPPNVRNKVRIRSWMDTIANINQELIKYEFFPEATRSEEDLKKYPKYPWGREIYTLEGVVDGAPYSMISDFPWLRSLRAAEPNSFARYDFEDDEESTIYAPRRKGQLSADICMETIGEEISEMRQMKKGVFQRVVAIFIHYCDVNGEPVEDDYI
For the molecule B2, the binding result in experiment [5] is “binds”.

B3: YAF2, endogenous (protein, UniProt Q8IY57 1-180)
chain: MGDKKSPTRPKRQPKPSSDEGYWDCSVCTFRNSAEAFKCMMCDVRKGTSTRKPRPVSQLVAQQVTQQFVPPTQSKKEKKDKVEKEKSEKETTSKKNSHKKTRPRLKNVDRSSAQHLEVTVGDLTVIITDFKEKTKSPPASSAASADQHSQSGSSSDNTERGMSRSSSPRGEASSLNGESH
As to B3, in experiment [5], the binding result is “binds”.

(Values after publication PMC8169803.)
